Measured values published in article PMC6444592, “Citrullination of HP1γ chromodomain affects association with chromatin” (Epigenetics & Chromatin, 2019).

Test system: HP1γ
Assay: MS/MS identification of citrullinated peptides
Parameters: species or system mouse
Conditions: MS analysis

heterochromatin protein 1 gamma [HP1γ]
stoichiometry of HP1γ citrullination in mESCs: very low percentage range
